Results deposited as PubChem BioAssay AID1671195 (Yale University, 2021)
Screen: 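Knockdowns that increase or decrease uptake of fluorescent LDL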 (primary screen). Cells: human Huh7 hepatoma cells. Reagents: siRNA pool against human genes, 18 nM. Time to read-out: about 2 to 2.5 days of knockdown, then 8 h LDL uptake. Challenge: DiI-labelled LDL at 30 µg/ml for 8 h, in lipoprotein-deficient serum medium. Measured: 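Per-cell DiI-LDL intensity by automated imaging; well means scaled to the plate median and given as a robust z-score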. Reading the numbers: robust z-score: higher = more LDL uptake after knockdown. Rule for the call: 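a gene counts as active if at least two replicate z-scores exceed ±2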.
In all, the deposit lists about 22,000 reagents; this is a random part of them. Of all reagents, about 1,510 (6.9%) got an active call. 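Active includes knockdowns raising or lowering LDL uptake; positive z-scores mean more uptake, negative mean less.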 The numbers tell different reagents against one gene apart.

Gene | pool no. | robust z-score, replicate 1 | robust z-score, replicate 2 | robust z-score, replicate 3 | Outcome
TLR7 | 1 | -0.679 | -0.943 | -0.894 | inactive
P2RY13 | 1 | -1.58 | -1.07 | -0.907 | inactive
ARIH2 | 1 | 0.112 | -1.14 | -1.67 | inactive
APOH | 1 | 0.525 | 1.37 | 0.688 | inactive
GART | 1 | -1.1 | 0.437 | 0.571 | inactive
MCUB | 1 | 0.404 | 1.85 | -1.14 | inactive
ZNF652 | 1 | -2.05 | -1.15 | -0.493 | inactive
MARCHF5 | 1 | -0.677 | 0.605 | -0.521 | inactive
C6orf136 | 1 | -1.46 | -1.51 | -1.54 | inactive
ZNF572 | 1 | -0.44 | -1.51 | -1.16 | inactive
TTC8 | 1 | -0.46 | -0.288 | 0.0899 | inactive
LINC03043 | 1 | 0.495 | 0.177 | -0.491 | inactive
LOC442474 (retired record) | 1 | 1.05 | 1.31 | 1.17 | inactive
TMBIM6 | 1 | -1.96 | -1.19 | -0.382 | inactive
FAM230B | 1 | 1.23 | 1.5 | 0.927 | inactive
PLAC9 | 1 | 0.696 | 0.362 | 0.695 | inactive
RCC1L | 1 | 1.33 | 0.891 | 0.384 | inactive

Quoted from the entries so far (2 entries):
Gene | pool no. | robust z-score, replicate 1 | robust z-score, replicate 2 | robust z-score, replicate 3 | Outcome
FAM230B | 1 | 1.23 | 1.5 | 0.927 | inactive
PLAC9 | 1 | 0.696 | 0.362 | 0.695 | inactive

The listing continues.
Gene | pool no. | robust z-score, replicate 1 | robust z-score, replicate 2 | robust z-score, replicate 3 | Outcome
FAM107B | 1 | 0.125 | 0.22 | -0.325 | inactive
THSD7B | 1 | -1.07 | -1.02 | -0.883 | inactive
NFIX | 1 | 1.42 | 0.53 | 1.08 | inactive
LOC440309 (retired record) | 1 | -0.0755 | 1.62 | -0.292 | inactive
ASXL1 | 1 | 0.32 | 0.0724 | 0.159 | inactive
LRRN4CL | 1 | 2.5 | 2.17 | 2.39 | active
LOC440753 (retired record) | 1 | 0.24 | 0.0894 | 0.481 | inactive
LINC01019 | 1 | -0.91 | -0.833 | -0.975 | inactive
UAP1 | 1 | 1.04 | 1.31 | 1.08 | inactive
ERGIC1 | 1 | 0.823 | 0.553 | 0.146 | inactive
BPNT2 | 1 | 0.027 | -0.321 | 1.17 | inactive
SLC35A4 | 1 | 0.253 | -0.49 | -0.674 | inactive
OVOL1 | 1 | 1.13 | 1.16 | 1.37 | inactive
FOXA1 | 1 | 0.222 | 0.228 | 0.22 | inactive
KLC1 | 1 | 1.3 | 1.34 | -0.151 | inactive
HROB | 1 | -1.11 | -0.962 | -0.98 | inactive
LOC440965 (retired record) | 1 | 0.656 | 0.97 | 0.958 | inactive
LAMA5 | 1 | 2.41 | 2.19 | 1.14 | active
PWWP2A | 1 | 0.374 | -1.4 | -0.59 | inactive
KLHDC8A | 1 | -0.241 | -0.506 | -0.954 | inactive
CAMSAP3 | 1 | -1.91 | -2.06 | -1.73 | active
EPS8L2 | 1 | -0.763 | -0.406 | -0.0385 | inactive
PAIP2B | 1 | -0.587 | -0.995 | -0.737 | inactive
AMY2A | 1 | -1.53 | -1.3 | -1.21 | inactive
PRPS2 | 1 | -1.62 | -0.891 | -1.06 | inactive
LOC440116 (retired record) | 1 | 0.0259 | -0.33 | -0.316 | inactive
TEC | 1 | 0.584 | -0.394 | 0.3 | inactive
FUOM | 1 | -0.267 | -0.349 | -0.205 | inactive
ERCC6L2 | 1 | 0.288 | 0.151 | 0.423 | inactive
ERCC6L2 | 2 | 0.423 | -0.239 | 0.162 | inactive
